Test results as given in the supplement of paper PMC10849652.
The list shows a part of the results.

Sequences of proteins named here, by UniProt entry; tags and fusion partners are left off. A change or cut given only in a name is not applied to a line headed by its entry.
UniProt Q12824, whole entry, looked up: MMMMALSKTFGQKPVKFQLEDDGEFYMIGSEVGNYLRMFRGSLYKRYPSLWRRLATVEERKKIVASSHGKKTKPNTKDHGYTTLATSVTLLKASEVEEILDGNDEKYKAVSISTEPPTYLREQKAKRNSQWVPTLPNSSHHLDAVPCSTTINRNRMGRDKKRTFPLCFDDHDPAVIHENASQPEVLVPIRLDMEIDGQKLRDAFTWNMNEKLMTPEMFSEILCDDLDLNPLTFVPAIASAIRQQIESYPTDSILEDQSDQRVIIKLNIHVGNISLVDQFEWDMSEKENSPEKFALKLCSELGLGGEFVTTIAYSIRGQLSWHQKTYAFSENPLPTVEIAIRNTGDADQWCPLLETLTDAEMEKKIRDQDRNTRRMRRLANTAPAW
UniProt Q13596, whole entry, looked up: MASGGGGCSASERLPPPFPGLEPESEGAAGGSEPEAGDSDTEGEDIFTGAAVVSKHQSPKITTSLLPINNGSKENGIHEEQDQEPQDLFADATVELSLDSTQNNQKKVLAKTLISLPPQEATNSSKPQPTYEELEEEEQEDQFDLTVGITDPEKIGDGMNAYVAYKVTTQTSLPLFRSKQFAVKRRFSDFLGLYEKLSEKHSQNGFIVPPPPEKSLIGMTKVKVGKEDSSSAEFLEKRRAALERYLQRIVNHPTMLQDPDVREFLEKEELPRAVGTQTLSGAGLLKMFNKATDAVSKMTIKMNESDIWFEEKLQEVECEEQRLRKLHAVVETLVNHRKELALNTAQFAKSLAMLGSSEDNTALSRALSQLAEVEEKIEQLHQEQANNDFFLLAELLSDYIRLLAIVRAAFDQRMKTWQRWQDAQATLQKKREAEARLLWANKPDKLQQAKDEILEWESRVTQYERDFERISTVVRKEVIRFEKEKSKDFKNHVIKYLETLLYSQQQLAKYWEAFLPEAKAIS
UniProt Q00796: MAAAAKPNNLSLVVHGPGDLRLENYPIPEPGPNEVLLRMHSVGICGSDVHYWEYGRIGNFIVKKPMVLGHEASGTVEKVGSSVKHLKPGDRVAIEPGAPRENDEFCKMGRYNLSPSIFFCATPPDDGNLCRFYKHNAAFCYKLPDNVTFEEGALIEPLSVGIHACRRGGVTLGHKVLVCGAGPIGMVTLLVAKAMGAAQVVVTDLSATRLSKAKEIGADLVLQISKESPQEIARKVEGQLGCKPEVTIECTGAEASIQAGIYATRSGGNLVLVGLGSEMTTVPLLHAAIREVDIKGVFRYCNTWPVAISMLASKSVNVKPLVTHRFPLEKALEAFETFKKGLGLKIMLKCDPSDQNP
UniProt P18583: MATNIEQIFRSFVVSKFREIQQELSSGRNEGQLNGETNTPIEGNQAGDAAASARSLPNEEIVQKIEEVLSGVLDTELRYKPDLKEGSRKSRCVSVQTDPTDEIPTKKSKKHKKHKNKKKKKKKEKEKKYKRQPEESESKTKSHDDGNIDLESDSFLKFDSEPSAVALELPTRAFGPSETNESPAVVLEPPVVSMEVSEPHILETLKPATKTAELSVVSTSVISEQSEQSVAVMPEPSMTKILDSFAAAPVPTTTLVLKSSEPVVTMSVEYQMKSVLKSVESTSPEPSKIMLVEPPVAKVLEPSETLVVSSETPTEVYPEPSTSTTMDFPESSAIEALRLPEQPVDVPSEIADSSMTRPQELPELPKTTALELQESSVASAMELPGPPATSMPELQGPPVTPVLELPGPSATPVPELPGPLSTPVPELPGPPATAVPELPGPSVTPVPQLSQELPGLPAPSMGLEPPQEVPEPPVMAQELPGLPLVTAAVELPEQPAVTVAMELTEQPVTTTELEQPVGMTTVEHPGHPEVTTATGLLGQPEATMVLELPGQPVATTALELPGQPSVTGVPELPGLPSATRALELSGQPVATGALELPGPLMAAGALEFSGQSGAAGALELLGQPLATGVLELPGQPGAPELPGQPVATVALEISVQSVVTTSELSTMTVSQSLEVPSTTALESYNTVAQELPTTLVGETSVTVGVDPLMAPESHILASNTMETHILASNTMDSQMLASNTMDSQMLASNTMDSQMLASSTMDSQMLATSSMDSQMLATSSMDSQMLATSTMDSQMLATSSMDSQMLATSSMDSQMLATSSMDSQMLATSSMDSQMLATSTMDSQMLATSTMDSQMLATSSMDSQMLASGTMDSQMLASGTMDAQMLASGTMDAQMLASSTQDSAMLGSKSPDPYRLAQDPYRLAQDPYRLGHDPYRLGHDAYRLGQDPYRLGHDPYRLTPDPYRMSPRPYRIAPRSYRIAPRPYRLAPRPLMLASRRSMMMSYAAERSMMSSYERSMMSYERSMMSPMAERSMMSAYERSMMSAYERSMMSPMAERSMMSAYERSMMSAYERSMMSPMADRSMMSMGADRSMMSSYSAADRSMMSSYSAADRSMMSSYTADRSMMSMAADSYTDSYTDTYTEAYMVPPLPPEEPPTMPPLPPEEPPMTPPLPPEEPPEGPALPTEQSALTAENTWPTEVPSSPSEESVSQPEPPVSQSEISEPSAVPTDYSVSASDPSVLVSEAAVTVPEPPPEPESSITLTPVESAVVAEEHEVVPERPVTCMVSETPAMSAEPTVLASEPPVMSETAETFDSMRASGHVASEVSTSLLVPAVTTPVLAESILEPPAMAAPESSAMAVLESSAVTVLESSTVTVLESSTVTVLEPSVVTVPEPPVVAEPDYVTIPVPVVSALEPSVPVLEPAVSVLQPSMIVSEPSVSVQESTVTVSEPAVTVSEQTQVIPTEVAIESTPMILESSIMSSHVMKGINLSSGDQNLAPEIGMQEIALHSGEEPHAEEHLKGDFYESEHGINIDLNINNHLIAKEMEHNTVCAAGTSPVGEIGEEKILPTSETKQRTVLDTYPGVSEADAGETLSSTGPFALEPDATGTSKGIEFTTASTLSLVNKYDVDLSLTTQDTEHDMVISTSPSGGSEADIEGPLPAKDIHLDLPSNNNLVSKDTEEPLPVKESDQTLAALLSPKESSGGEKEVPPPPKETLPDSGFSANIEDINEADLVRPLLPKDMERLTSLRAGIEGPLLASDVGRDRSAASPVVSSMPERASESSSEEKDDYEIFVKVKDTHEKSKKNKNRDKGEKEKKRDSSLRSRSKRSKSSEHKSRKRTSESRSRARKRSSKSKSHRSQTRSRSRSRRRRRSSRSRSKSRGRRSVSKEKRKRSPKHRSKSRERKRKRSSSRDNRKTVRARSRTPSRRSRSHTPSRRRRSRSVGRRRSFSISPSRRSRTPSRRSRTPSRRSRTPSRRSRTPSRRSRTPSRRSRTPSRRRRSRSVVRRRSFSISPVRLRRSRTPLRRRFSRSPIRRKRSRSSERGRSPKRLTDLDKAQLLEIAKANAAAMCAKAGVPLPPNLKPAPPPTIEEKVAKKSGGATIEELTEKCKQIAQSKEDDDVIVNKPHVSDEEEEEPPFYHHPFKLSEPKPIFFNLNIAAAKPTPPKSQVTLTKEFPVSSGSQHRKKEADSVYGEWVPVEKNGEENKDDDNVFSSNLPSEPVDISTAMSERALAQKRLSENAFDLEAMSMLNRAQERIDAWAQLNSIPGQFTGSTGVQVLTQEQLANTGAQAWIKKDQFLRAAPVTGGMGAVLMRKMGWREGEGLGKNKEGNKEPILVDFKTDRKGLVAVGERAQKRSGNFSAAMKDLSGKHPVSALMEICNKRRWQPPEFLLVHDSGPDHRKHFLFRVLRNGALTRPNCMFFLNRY
UniProt O95721: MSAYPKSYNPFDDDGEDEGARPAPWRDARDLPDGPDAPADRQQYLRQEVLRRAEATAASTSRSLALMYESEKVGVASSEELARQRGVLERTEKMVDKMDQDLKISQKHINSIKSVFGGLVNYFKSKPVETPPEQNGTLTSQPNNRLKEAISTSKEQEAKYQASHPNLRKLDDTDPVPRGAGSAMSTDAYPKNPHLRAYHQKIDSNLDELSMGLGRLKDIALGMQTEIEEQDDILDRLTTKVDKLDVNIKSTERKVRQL
UniProt Q86US8: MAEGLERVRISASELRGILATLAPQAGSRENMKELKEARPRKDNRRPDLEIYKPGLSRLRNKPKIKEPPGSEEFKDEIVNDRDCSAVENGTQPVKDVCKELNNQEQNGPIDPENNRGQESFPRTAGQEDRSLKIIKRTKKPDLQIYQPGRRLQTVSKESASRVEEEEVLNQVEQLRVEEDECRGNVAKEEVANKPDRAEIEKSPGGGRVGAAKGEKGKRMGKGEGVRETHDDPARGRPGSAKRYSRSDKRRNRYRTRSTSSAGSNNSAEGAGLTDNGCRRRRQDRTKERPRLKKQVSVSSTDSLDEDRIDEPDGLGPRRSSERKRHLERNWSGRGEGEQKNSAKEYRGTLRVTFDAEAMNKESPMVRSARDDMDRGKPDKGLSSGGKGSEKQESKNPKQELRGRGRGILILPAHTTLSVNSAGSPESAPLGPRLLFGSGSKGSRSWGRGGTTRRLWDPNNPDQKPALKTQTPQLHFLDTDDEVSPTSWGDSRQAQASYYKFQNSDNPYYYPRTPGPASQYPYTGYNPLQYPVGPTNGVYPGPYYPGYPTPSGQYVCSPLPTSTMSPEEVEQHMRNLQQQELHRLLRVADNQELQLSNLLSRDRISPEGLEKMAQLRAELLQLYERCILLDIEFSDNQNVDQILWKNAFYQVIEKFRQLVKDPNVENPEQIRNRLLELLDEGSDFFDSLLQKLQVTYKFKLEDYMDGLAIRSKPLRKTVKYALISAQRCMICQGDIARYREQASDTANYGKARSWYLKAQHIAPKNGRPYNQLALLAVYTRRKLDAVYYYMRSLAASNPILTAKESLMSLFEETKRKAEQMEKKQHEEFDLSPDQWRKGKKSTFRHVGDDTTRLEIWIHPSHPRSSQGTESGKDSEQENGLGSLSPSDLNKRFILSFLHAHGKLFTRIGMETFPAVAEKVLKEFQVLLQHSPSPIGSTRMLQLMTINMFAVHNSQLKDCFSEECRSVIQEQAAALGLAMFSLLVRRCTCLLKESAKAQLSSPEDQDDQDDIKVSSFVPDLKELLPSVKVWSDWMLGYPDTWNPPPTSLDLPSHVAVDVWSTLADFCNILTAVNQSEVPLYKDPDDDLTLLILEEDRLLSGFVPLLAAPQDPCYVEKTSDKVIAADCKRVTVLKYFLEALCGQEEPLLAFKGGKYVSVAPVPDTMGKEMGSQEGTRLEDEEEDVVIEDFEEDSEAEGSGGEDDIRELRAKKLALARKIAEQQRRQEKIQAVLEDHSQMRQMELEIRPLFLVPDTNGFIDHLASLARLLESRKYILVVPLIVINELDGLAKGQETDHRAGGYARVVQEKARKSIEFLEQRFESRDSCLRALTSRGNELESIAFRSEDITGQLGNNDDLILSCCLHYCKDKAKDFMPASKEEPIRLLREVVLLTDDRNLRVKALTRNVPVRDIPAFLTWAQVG
UniProt P23497: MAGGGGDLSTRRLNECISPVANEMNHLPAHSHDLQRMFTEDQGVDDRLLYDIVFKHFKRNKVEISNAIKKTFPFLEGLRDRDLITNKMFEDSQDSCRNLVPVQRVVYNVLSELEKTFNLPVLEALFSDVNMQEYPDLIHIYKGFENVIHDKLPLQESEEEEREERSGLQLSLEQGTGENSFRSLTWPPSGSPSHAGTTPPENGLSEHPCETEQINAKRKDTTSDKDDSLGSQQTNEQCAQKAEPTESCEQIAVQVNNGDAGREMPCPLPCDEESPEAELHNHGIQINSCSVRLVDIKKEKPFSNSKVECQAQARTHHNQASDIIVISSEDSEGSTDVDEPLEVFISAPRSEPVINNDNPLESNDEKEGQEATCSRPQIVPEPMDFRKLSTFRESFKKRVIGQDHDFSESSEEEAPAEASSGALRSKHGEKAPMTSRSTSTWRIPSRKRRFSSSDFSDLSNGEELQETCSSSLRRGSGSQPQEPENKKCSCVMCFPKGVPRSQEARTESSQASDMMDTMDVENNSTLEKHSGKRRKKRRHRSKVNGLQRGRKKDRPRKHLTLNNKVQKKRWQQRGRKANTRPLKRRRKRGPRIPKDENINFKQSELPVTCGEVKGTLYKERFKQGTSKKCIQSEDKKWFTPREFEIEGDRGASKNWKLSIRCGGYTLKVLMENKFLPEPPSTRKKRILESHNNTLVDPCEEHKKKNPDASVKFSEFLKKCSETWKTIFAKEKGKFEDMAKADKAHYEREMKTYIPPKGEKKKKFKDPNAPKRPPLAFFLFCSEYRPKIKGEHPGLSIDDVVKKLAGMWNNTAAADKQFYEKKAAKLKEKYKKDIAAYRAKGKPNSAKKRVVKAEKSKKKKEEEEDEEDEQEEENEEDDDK
UniProt O76070, whole entry, looked up: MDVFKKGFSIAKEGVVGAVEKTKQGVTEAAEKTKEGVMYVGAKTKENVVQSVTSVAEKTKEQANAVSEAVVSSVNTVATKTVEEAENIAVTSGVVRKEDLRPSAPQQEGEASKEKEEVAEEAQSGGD
UniProt P09234, whole entry, looked up: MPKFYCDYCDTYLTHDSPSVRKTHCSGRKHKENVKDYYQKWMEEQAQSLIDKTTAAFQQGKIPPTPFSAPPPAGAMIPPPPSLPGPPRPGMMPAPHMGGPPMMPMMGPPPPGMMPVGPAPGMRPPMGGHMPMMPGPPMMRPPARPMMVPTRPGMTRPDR

What was measured:
Test in all cases: log2 fold change, soluble protein after heating vs DMSO (PISA); higher = thermal stabilisation; K562 lysate, 10 uM; active = over 0.2 and 3.5 SD of the protein, either way, in both replicates (recomputed)
lapatinib = compound: CS(=O)(=O)CCNCc1ccc(-c2ccc3ncnc(Nc4ccc(OCc5cccc(F)c5)c(Cl)c4)c3c2)o1 [lapatinib]
Outline: (§1)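 Quantification was by TMTpro 16plex LC-MS/MS with equalised channel sums, applied to the supernatant after 21,000xg for 90 min. Samples were crude K562 extract at 1 mg/mL protein in PBS pH 7.4 with 1 mM MgCl2, treated with 10 μM compound for 30 min, heated for 3 min across 48°C-58°C, pooled and brought to 0.5% NP-40 at 4°C. Values are log-two fold changes in thermal stability relative to solvent controls, from duplicates.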

pictilisib = compound: CS(=O)(=O)N1CCN(Cc2cc3nc(-c4cccc5[nH]ncc45)nc(N4CCOCC4)c3s2)CC1 [pictilisib]
Outline: as §1

crizotinib = compound: C[C@@H](Oc1cc(-c2cnn(C3CCNCC3)c2)cnc1N)c1c(Cl)ccc(F)c1Cl [crizotinib]
Outline: as §1

[1] = compound: C[C@H](C1=CC=C(C=C1)C(=O)NC2=C3C=CNC3=NC=C2)N
Outline: as §1

duvelisib = compound: C[C@H](Nc1ncnc2nc[nH]c12)c1cc2cccc(Cl)c2c(=O)n1-c1ccccc1 [duvelisib]
Outline: as §1

gandotinib = compound: Cc1cc(Nc2cc(CN3CCOCC3)c3nc(C)c(Cc4ccc(Cl)cc4F)n3n2)n[nH]1 [gandotinib]
Outline: as §1

tozasertib = compound: Cc1cc(Nc2cc(N3CCN(C)CC3)nc(Sc3ccc(NC(=O)C4CC4)cc3)n2)n[nH]1 [tozasertib]
Outline: as §1

doramapimod = compound: Cc1ccc(-n2nc(C(C)(C)C)cc2NC(=O)Nc2ccc(OCCN3CCOCC3)c3ccccc23)cc1 [doramapimod]
Outline: as §1

bafetinib = compound: Cc1ccc(NC(=O)c2ccc(CN3CC[C@H](N(C)C)C3)c(C(F)(F)F)c2)cc1Nc1nccc(-c2cncnc2)n1 [bafetinib]
Outline: as §1

[2] = compound: Cc1cccc(CC(=O)N2CCc3c2ccc(-c2cn(C)c4ncnc(N)c24)c3F)n1
Outline: as §1

nilotinib = compound: Cc1cn(-c2cc(NC(=O)c3ccc(C)c(Nc4nccc(-c5cccnc5)n4)c3)cc(C(F)(F)F)c2)cn1 [nilotinib]
Outline: as §1

[3] = compound: Cc1nc(Nc2n[nH]c3c2CN(C(=O)N[C@H](CN(C)C)c2ccccc2)C3(C)C)c2sccc2n1
Outline: as §1

dasatinib = compound: Cc1nc(Nc2ncc(C(=O)Nc3c(C)cccc3Cl)s2)cc(N2CCN(CCO)CC2)n1 [dasatinib]
Outline: as §1

[4] = compound: Cc1ncc(-c2ccnc(Nc3ccc(S(C)(=O)=O)cc3)n2)n1C(C)C
Outline: as §1

[5] = compound: Cn1cc(-c2ccc3c(c2)CCN3C(=O)Cc2cccc(C(F)(F)F)c2)c2c(N)ncnc21
Outline: as §1

quisinostat = compound: Cn1cc(CNCC2CCN(c3ncc(C(=O)NO)cn3)CC2)c2ccccc21 [quisinostat]
Outline: as §1

tipifarnib = compound: Cn1cncc1[C@@](N)(c1ccc(Cl)cc1)c1ccc2c(c1)c(-c1cccc(Cl)c1)cc(=O)n2C [tipifarnib]
Outline: as §1

[6] = compound: NC(=O)Nc1cc(-c2cccc(F)c2)sc1C(=O)N[C@H]1CCCNC1
Outline: as §1

[7] = compound: NC(=O)c1cnc(N[C@@H]2CCCC[C@@H]2N)nc1Nc1cccc(-n2nccn2)c1
Outline: as §1

[8] = compound: NC1(c2ccc(-c3nc4ccn5c(=O)[nH]nc5c4cc3-c3ccccc3)cc2)CCC1
Outline: as §1

Row | Target | log2 fold change (lapatinib) | log2 fold change (pictilisib) | log2 fold change (crizotinib) | log2 fold change [1] | log2 fold change (duvelisib) | log2 fold change (gandotinib) | log2 fold change (tozasertib) | log2 fold change (doramapimod) | log2 fold change (bafetinib) | log2 fold change [2] | log2 fold change (nilotinib) | log2 fold change [3] | log2 fold change (dasatinib) | log2 fold change [4] | log2 fold change [5] | log2 fold change (quisinostat) | log2 fold change (tipifarnib) | log2 fold change [6] | log2 fold change [7] | log2 fold change [8]
1 | SMARCB1 (UniProt Q12824) | inactive: -0.057 | inactive: -0.008 | inactive: -0.017 | inactive: -0.034 | inactive: 0.013 | inactive: -0.027 | inactive: -0.046 | inactive: 0.028 | inactive: -0.112 | inactive: -0.038 | inactive: -0.014 | inactive: 0.003 | inactive: 0.019 | inactive: 0.007 | inactive: 0.033 | inactive: -0.053 | inactive: 0.026 | inactive: 0.04 | inactive: -0.003 | inactive: 0.01
2 | SNX1 (UniProt Q13596) | inactive: -0.013 | inactive: 0.007 | inactive: 0.027 | inactive: -0.012 | inactive: -0.003 | inactive: -0.003 | inactive: 0.007 | inactive: -0.009 | inactive: -0.025 | inactive: 0.024 | inactive: 0.004 | inactive: -0.008 | inactive: 0.001 | inactive: 0.003 | inactive: 0.026 | inactive: 0.034 | inactive: 0.007 | inactive: 0.02 | inactive: 0.005 | inactive: 0.003
3 | SNRPC (UniProt Q5TAL2) | inactive: -0.046 | inactive: -0.096 | inactive: 0.024 | inactive: -0.063 | inactive: 0.012 | inactive: 0.213 | inactive: 0.121 | inactive: -0.038 | inactive: 0.113 | inactive: 0.078 | inactive: 0.122 | inactive: 0.034 | inactive: 0.048 | inactive: 0.053 | inactive: -0.018 | inactive: 0.002 | inactive: 0 | inactive: -0.023 | inactive: 0.017 | inactive: 0.008
4 | SORD (UniProt Q00796) | inactive: -0.022 | inactive: -0.024 | inactive: 0.011 | inactive: -0.067 | inactive: 0.019 | inactive: 0.062 | inactive: 0.011 | inactive: 0.011 | inactive: 0.031 | inactive: 0.018 | inactive: 0.025 | inactive: -0.007 | inactive: -0.019 | inactive: 0.01 | inactive: 0.004 | inactive: -0.031 | inactive: -0.005 | inactive: -0.002 | inactive: -0.014 | inactive: 0.033
5 | SON isoform 9 (UniProt P18583) | inactive: -0.044 | inactive: 0.012 | inactive: -0.041 | inactive: -0.127 | inactive: 0.026 | inactive: -0.016 | inactive: -0.028 | inactive: 0.017 | inactive: -0.147 | inactive: 0.097 | inactive: 0.022 | inactive: -0.053 | inactive: -0.053 | inactive: 0.038 | inactive: 0.028 | inactive: -0.001 | inactive: -0.02 | inactive: -0.015 | inactive: 0 | inactive: 0.021
6 | SNAP29 (UniProt O95721) | inactive: 0.031 | inactive: 0.093 | inactive: 0.048 | inactive: -0.034 | inactive: -0.025 | inactive: 0.107 | inactive: 0.008 | inactive: 0.073 | inactive: -0.032 | inactive: 0 | inactive: 0.024 | inactive: -0.014 | inactive: 0.031 | inactive: -0.023 | inactive: -0.013 | inactive: -0.044 | inactive: -0.015 | inactive: -0.011 | inactive: -0.007 | inactive: 0.031
7 | SNRPF (UniProt P62306) | inactive: 0.021 | inactive: -0.029 | inactive: -0.077 | inactive: -0.237 | inactive: 0.076 | inactive: 0.21 | inactive: -0.016 | inactive: 0.026 | inactive: 0.05 | inactive: 0.218 | inactive: -0.044 | inactive: 0.063 | inactive: 0.005 | inactive: 0.013 | inactive: -0.156 | inactive: -0.276 | inactive: -0.037 | inactive: 0 | inactive: -0.044 | inactive: 0.013
8 | SMG6 (UniProt Q86US8) | inactive: 0.009 | inactive: -0.032 | inactive: 0.028 | inactive: -0.097 | inactive: -0.1 | inactive: 0.025 | inactive: -0.096 | inactive: 0.051 | inactive: -0.049 | inactive: 0.039 | inactive: -0.067 | inactive: 0.028 | inactive: 0.048 | inactive: 0.079 | inactive: 0.082 | inactive: -0.05 | inactive: -0.065 | inactive: 0.028 | inactive: 0.065 | inactive: 0.011
9 | SPAG7 (UniProt O75391) | inactive: 0.014 | inactive: -0.027 | inactive: 0.03 | inactive: -0.082 | inactive: 0.014 | inactive: 0.055 | inactive: 0.001 | inactive: -0.006 | inactive: 0.015 | inactive: 0.033 | inactive: -0.026 | inactive: 0.011 | inactive: 0.022 | inactive: 0.027 | inactive: 0 | inactive: -0.01 | inactive: 0.049 | inactive: -0.024 | inactive: 0.01 | inactive: -0.032
10 | SMARCD1 (UniProt Q96GM5) | inactive: -0.025 | inactive: -0.025 | inactive: 0.111 | inactive: -0.019 | inactive: 0.074 | inactive: -0.036 | inactive: 0.038 | inactive: -0.095 | inactive: -0.058 | inactive: -0.016 | inactive: 0.025 | inactive: -0.012 | inactive: -0.029 | inactive: -0.026 | inactive: -0.027 | inactive: 0.043 | inactive: 0.025 | inactive: 0.017 | inactive: 0.03 | inactive: -0.032
11 | SP100 isoform 4 (UniProt P23497) | inactive: -0.02 | inactive: 0.002 | inactive: 0.013 | inactive: 0.032 | inactive: 0.04 | inactive: 0.02 | inactive: -0.002 | inactive: -0.007 | inactive: -0.011 | inactive: -0.014 | inactive: -0.001 | inactive: 0.022 | inactive: 0.023 | inactive: -0.032 | inactive: 0.006 | inactive: -0.027 | inactive: -0.019 | inactive: -0.022 | inactive: 0.024 | inactive: 0.035
12 | SMC6 (UniProt Q96SB8) | inactive: -0.051 | inactive: -0.06 | inactive: -0.026 | inactive: -0.039 | inactive: 0.034 | inactive: -0.002 | inactive: 0.004 | inactive: -0.011 | inactive: 0.007 | inactive: 0.029 | inactive: 0.006 | inactive: 0 | inactive: -0.021 | inactive: -0.019 | inactive: 0.012 | inactive: -0.012 | inactive: -0.06 | inactive: 0.034 | inactive: 0.001 | inactive: 0.013
13 | SNCG (UniProt O76070) | inactive: 0.043 | inactive: 0.023 | inactive: 0.047 | inactive: -0.018 | inactive: -0.033 | inactive: 0.125 | inactive: -0.033 | inactive: 0.031 | inactive: -0.002 | inactive: -0.008 | inactive: -0.014 | inactive: -0.011 | inactive: 0.05 | inactive: 0.009 | inactive: -0.022 | inactive: -0.012 | inactive: 0.033 | inactive: -0.062 | inactive: -0.057 | inactive: 0.007
14 | SMIM12 (UniProt Q96EX1) | inactive: 0.014 | inactive: 0.022 | inactive: -0.024 | active: 0.417 | inactive: -0.061 | inactive: -0.191 | inactive: -0.009 | inactive: 0.077 | inactive: -0.083 | inactive: -0.153 | inactive: 0.014 | inactive: 0.025 | inactive: 0.09 | inactive: 0.027 | inactive: 0.061 | inactive: -0.093 | inactive: -0.023 | inactive: 0.002 | inactive: -0.016 | inactive: -0.041
15 | SNRPC (UniProt P09234) | inactive: 0.029 | inactive: -0.039 | inactive: 0 | inactive: 0.001 | inactive: 0.013 | inactive: 0.025 | inactive: -0.001 | inactive: 0.038 | inactive: 0.03 | inactive: 0.015 | inactive: -0.012 | inactive: 0.043 | inactive: 0.007 | inactive: 0.022 | inactive: 0.023 | inactive: -0.028 | inactive: 0.024 | inactive: 0.041 | inactive: 0.012 | inactive: 0.029
16 | SMN1 (UniProt Q16637) | inactive: 0.086 | inactive: 0.035 | inactive: -0.183 | inactive: -0.031 | inactive: 0.021 | inactive: -0.056 | inactive: 0.049 | inactive: 0.022 | inactive: 0.036 | inactive: 0.158 | inactive: 0.012 | inactive: 0.019 | inactive: -0.005 | inactive: -0.023 | inactive: 0.05 | inactive: -0.146 | inactive: 0 | inactive: -0.001 | inactive: 0.047 | inactive: 0

Part of the list above, reformatted.

| Row | Target | log2 fold change (lapatinib) | log2 fold change (pictilisib) | log2 fold change (crizotinib) | log2 fold change [1] | log2 fold change (duvelisib) | log2 fold change (gandotinib) | log2 fold change (tozasertib) | log2 fold change (doramapimod) | log2 fold change (bafetinib) | log2 fold change [2] | log2 fold change (nilotinib) | log2 fold change [3] | log2 fold change (dasatinib) | log2 fold change [4] | log2 fold change [5] | log2 fold change (quisinostat) | log2 fold change (tipifarnib) | log2 fold change [6] | log2 fold change [7] | log2 fold change [8] |
| --- | --- | --- | --- | --- | --- | --- | --- | --- | --- | --- | --- | --- | --- | --- | --- | --- | --- | --- | --- | --- | --- |
| 3 | SNRPC (UniProt Q5TAL2) | inactive: -0.046 | inactive: -0.096 | inactive: 0.024 | inactive: -0.063 | inactive: 0.012 | inactive: 0.213 | inactive: 0.121 | inactive: -0.038 | inactive: 0.113 | inactive: 0.078 | inactive: 0.122 | inactive: 0.034 | inactive: 0.048 | inactive: 0.053 | inactive: -0.018 | inactive: 0.002 | inactive: 0 | inactive: -0.023 | inactive: 0.017 | inactive: 0.008 |
| 4 | SORD (UniProt Q00796) | inactive: -0.022 | inactive: -0.024 | inactive: 0.011 | inactive: -0.067 | inactive: 0.019 | inactive: 0.062 | inactive: 0.011 | inactive: 0.011 | inactive: 0.031 | inactive: 0.018 | inactive: 0.025 | inactive: -0.007 | inactive: -0.019 | inactive: 0.01 | inactive: 0.004 | inactive: -0.031 | inactive: -0.005 | inactive: -0.002 | inactive: -0.014 | inactive: 0.033 |
| 5 | SON isoform 9 (UniProt P18583) | inactive: -0.044 | inactive: 0.012 | inactive: -0.041 | inactive: -0.127 | inactive: 0.026 | inactive: -0.016 | inactive: -0.028 | inactive: 0.017 | inactive: -0.147 | inactive: 0.097 | inactive: 0.022 | inactive: -0.053 | inactive: -0.053 | inactive: 0.038 | inactive: 0.028 | inactive: -0.001 | inactive: -0.02 | inactive: -0.015 | inactive: 0 | inactive: 0.021 |
